Laboratory results as given in patent publication US20130344085A1.
Where a chain is given by its changes, count along the chain named. Results are given in words; binding and its absence hold for the method and conditions named. Some binding calls cover weakened binding; strength is not graded here. Each block holds one binder with its values, some of them ahead of it.

The chains behind the UniProt entries cited, without tags or fusion partners. Where a name states a change or a piece, a line headed by the entry shows the natural chain unless it says otherwise.
UniProt Q8NBP7: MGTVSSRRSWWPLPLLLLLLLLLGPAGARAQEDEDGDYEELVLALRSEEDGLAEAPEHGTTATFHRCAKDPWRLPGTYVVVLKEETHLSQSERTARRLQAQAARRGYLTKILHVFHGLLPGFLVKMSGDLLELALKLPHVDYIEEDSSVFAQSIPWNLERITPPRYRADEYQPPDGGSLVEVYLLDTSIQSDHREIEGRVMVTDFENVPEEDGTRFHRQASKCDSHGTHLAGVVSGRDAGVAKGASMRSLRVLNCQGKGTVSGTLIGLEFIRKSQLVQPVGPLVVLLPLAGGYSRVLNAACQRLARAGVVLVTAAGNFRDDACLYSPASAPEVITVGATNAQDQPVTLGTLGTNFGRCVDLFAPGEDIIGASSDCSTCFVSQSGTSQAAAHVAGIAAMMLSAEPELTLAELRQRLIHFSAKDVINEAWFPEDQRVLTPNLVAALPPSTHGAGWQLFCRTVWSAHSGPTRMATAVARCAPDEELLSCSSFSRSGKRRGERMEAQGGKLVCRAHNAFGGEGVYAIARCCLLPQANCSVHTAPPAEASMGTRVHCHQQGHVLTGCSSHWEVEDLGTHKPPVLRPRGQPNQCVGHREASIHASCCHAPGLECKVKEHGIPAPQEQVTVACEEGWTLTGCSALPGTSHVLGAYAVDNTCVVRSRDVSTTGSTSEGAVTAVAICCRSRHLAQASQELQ

Target: biotinylated human PCSK9 (human) (UniProt Q8NBP7)
Assay: phage competition ELISA (phage IC50) against PCSK9, phage-displayed Fab, compared with parental clone 508.20b

B1: anti-PCSK9 antibody 508.20.04b (antibody, human IgG1, V domains shown)
VH: EVQLVESGGGLVQPGGSLRLSCAASGFTFTGYAIHWVRQAPGKGLEWVARISPANGNTNYADSVKGRFTISADTSKNTAYLQMNSLRAEDTAVYYCARWIGSRELYIMDYWGQGTLVTVSS
VL: DIQMTQSPSSLSASVGDRVTITCRASQDVSTAVAWYQQKPGKAPKLLIYSASFLYSGVPSRFSGSGSGTDFTLTISSLQPEDFATYYCQQSYPAPATFGQGTKVEIK
- binding: binds

B2: YW508.20.33b reformatted into human IgG1 having a heavy chain with SEQ ID NO: 35 and a light chain with SEQ ID NO: 36 (antibody, V domains shown)
VH: B1 VH with T30S, G31S, Y32T
VL: DIQMTQSPSSLSASVGDRVTITCRASQDVSTAVAWYQQKPGKAPKLLIYSASFLYSGVPSRFSGSGSGTDFTLTISSLQPEDFATYYCQQAYPALHTFGQGTKVEIKR
- binding: binds

B3: anti-PCSK9 antibody 508.20.06 (antibody, human IgG1, V domains shown)
VH: B1 VH
VL: B1 VL with A94S
- binding: binds

Second part, the binder after the results:

- binding: binds
B4: anti-PCSK9 antibody 508.20.84 (antibody, human IgG1, V domains shown)
VH: B1 VH
VL: B1 VL with A96S

- binding: binds
B5: anti-PCSK9 antibody 508.20.28b (antibody, human IgG1, V domains shown)
VH: B1 VH with G31R, Y32H, A33T, H35N
VL: B1 VL with P93R, A94I, P95Q, A96P
